Measurements as given in the supplement of paper PMC5949888.
Most values lie at the floor of the assay. Slopes are relative: functional sequences can read slightly below zero.

These substances were tested on Saccharomyces cerevisiae PS128 hsf1 delta, HSF1(1-493) fusion (assay: growth estimate (transactivation domain function in HSF1 fusion, heat-shock survival) (a.u. (slope of normalised read count over time)); higher = stronger growth at 37°C, i.e. more transactivation activity). Conditions: library: random library.

| Substance | growth estimate |
| --- | --- |
| PWSEIIWPGEMHRKFEPKPM | < -0.25 |
| PWSGHKKVRRPLDHDWGTVP | < -0.25 |
| PWSKHRQDRCYKRARLLLYT | -0.243 |
| PWTSEVQRSR | < -0.25 |
| PWVIDPFGWEQENRAN | -0.247 |
| PWVIPQTAKGHEPRKSASAD | < -0.25 |
| PWVIPRREDSTIQLLRP | -0.0526 |
| PWYVPTQAFR | < -0.25 |
| PYCVVPARD | < -0.25 |
| PYDDISPEIHHSH | < -0.25 |
| PYENNAFKL | < -0.25 |
| PYFS | < -0.25 |
| PYFTVFLWWPRQPSSIWSWM | < -0.25 |
| PYGDPQVSPVRVCYIHVTNR | < -0.25 |
| PYILWDLPLPRFRPMFARL | < -0.25 |
| PYLCPREVESIGGRMCMLGV | < -0.25 |
| PYLRDLCQNPPVQ | < -0.25 |
| PYMSFSAVHRASLMRTCRVN | -0.103 |
| PYPGERAEHSG | < -0.25 |
| PYPQSLHG | < -0.25 |
| PYQRHGLGLREC | < -0.25 |
| PYRF | < -0.25 |
| PYRSLTFAQNVLLAKVYREQ | < -0.25 |
| PYRYDPLNKVALIVGVHPDS | < -0.25 |
| PYSATTQNFSNGLLPRYVYP | < -0.25 |
| PYVQRILALIDTWFTEFVAN | < -0.25 |
| PYWHMNVIGNIYSRSCPRTC | < -0.25 |

| Substance | growth estimate |
| --- | --- |
| QAAAPRVGLTAVIVRSIRDP | < -0.25 |
| QAAGSDRMSSYISLFIGFGG | < -0.25 |
| QADFSQAPGVGG | < -0.25 |
| QADTCLRAQAQMKIISRCFC | < -0.25 |
| QAGLGGRWKNFMQFARPPAE | < -0.25 |
| QAGSPWIPDRFLPVKHAYMS | -0.198 |
| QAGSSRDTMPFVDPDKGAAS | < -0.25 |
| QAHDQYRIVVAVCLVLRYSD | < -0.25 |
| QALKGNYLVTASWSYHD | < -0.25 |
| QALLSRARLVGWRVTL | < -0.25 |
| QARTTSWLHEVFRGASLEF | < -0.25 |
| QASWISPYVTVS | -0.248 |
| QAVI | < -0.25 |
| QCAVAAGAAVSNFAFSWRQR | < -0.25 |
| QCGRSGAPAHRMGCTSFDSL | < -0.25 |
| QCGSSTVCRCRVSTNRGKSG | < -0.25 |
| QCPAGRM | < -0.25 |
| QCQICLVRLMSIWPAKNAQE | < -0.25 |
| QCQVMCRVGLA | < -0.25 |
| QCRNASGCR | < -0.25 |
| QCRYGVGECTRVFMVTGN | < -0.25 |
| QCTRHSDRIANG | < -0.25 |
| QCVGDIASARILL | < -0.25 |
| QDAGQEARDGLPGATLTLRT | < -0.25 |
| QDDARRGR | < -0.25 |
| QDEEQGL | < -0.25 |
| QDLLF | < -0.25 |

In a second layout: entries from further up
Substance	growth estimate
QAAAPRVGLTAVIVRSIRDP	< -0.25
QALLSRARLVGWRVTL	< -0.25
QCAVAAGAAVSNFAFSWRQR	< -0.25

Further entries follow.

| Substance | growth estimate |
| --- | --- |
| QDLLLDPQVQMRNVYCERRS | < -0.25 |
| QDLVPFRHAEVHYNRVNDVV | < -0.25 |
| QDPPAAWCWAILWSTFATYV | < -0.25 |
| QDPTPL | -0.243 |
| QDR | < -0.25 |
| QDSALAHVAGGLISVVVGYC | < -0.25 |
| QDSIRIGGPSSHVLTASYEH | < -0.25 |
| QDSQWC | < -0.25 |
| QDTGKV | -0.246 |
| QEAH | < -0.25 |
| QEALEGIWPHAG | < -0.25 |
| QEDNNSELRNWAGKGKPVVR | < -0.25 |
| QEEVTFVTVIIGEGYDSLRG | < -0.25 |
| QEGFMSPKWKLALRLRICRV | < -0.25 |
| QEIVSRERRIHIHIY | < -0.25 |
| QEK | < -0.25 |
| QELRR | < -0.25 |
| QELTIRGC | < -0.25 |
| QERYWNIFMQYVRQDGTGKR | < -0.25 |
| QESMATGQISDTSASRAPVT | -0.245 |
| QEVGGPLKWDRADVGATGIR | < -0.25 |
| QEVHAYADGRSYI | < -0.25 |
| QEYNHYSRKGYEVSAVF | < -0.25 |
| QFGILLVLLVQEHIWTRTKH | < -0.25 |
| QFHLNRNGTFHRYF | < -0.25 |
